{"source": "PubChem BioAssay AID1259308 (NCATS, 2017)", "purpose": "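Candidate targets for better recombinant protein yield in mammalian cells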 (primary screen)", "cell system": "human HEK293 embryonic kidney cells stably expressing firefly luciferase (HEK-CMV-Luc2-Hygro)", "knock-down reagent": "single siRNA against human genes, 0.8 pmol siRNA per well", "time to read-out": "72 h", "read-out": "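Luciferase light (ONE-Glo) measured on one replicate plate set and viability (CellTiter-Glo) on the other, scaled to a negative control siRNA, with robust z-scores and luciferase per cell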", "reading the numbers": "total luciferase, z-score: higher = more reporter protein produced", "hit rule": "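An siRNA counts as active if its total luciferase robust z-score exceeds 3; genes with two or more such siRNAs out of three were retested with fresh siRNAs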", "meaning of the calls": "active = raised luciferase; inactive = no rise", "note": "Shown is a random part of about 59,000 reagents tested. Of all reagents, about 1,510 (2.6%) were called active. 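Calls use total luciferase alone and ignore viability, so some active siRNAs may act by altering cell number.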 A number with no mark means an inactive call. The numbers tell different reagents against one gene apart. Further read-outs or replicates are left out here."}
{"gene symbol":"BTG3","reagent":1,"total luciferase, z-score":0.344}
{"gene symbol":"BTG3","reagent":2,"total luciferase, z-score":0.245}
{"gene symbol":"BTG3","reagent":3,"total luciferase, z-score":-1.12}
{"gene symbol":"USP41P","reagent":1,"total luciferase, z-score":-0.23}
{"gene symbol":"USP41P","reagent":2,"total luciferase, z-score":0.166}
{"gene symbol":"USP41P","reagent":3,"total luciferase, z-score":1.09}
{"gene symbol":"HS3ST5","reagent":1,"total luciferase, z-score":0.0913}
{"gene symbol":"HS3ST5","reagent":2,"total luciferase, z-score":0.67}
{"gene symbol":"HS3ST5","reagent":3,"total luciferase, z-score":0.104}
{"gene symbol":"POLE4","reagent":1,"total luciferase, z-score":-0.415}
{"gene symbol":"POLE4","reagent":2,"total luciferase, z-score":0.167}
{"gene symbol":"POLE4","reagent":3,"total luciferase, z-score":-1.2}
{"gene symbol":"FBXL8","reagent":1,"total luciferase, z-score":0.0595}
{"gene symbol":"FBXL8","reagent":2,"total luciferase, z-score":0.348}
{"gene symbol":"FBXL8","reagent":3,"total luciferase, z-score":-0.41}
{"gene symbol":"TIGD6","reagent":1,"total luciferase, z-score":-0.948}
{"gene symbol":"TIGD6","reagent":2,"total luciferase, z-score":-0.00497}
{"gene symbol":"TIGD6","reagent":3,"total luciferase, z-score":1.13}
{"gene symbol":"TIGD6","reagent":4,"total luciferase, z-score":0.563}
{"gene symbol":"TIGD6","reagent":5,"total luciferase, z-score":0.286}
{"gene symbol":"TIGD6","reagent":6,"total luciferase, z-score":0.254}
{"gene symbol":"LGALS13","reagent":1,"total luciferase, z-score":0.694}
{"gene symbol":"LGALS13","reagent":2,"total luciferase, z-score":-1.08}
{"gene symbol":"LGALS13","reagent":3,"total luciferase, z-score":0.427}
{"gene symbol":"SCNN1D","reagent":1,"total luciferase, z-score":2.17}
{"gene symbol":"SCNN1D","reagent":2,"total luciferase, z-score":0.487}
{"gene symbol":"SCNN1D","reagent":3,"total luciferase, z-score":0.907}
{"gene symbol":"MYL2","reagent":1,"total luciferase, z-score":-0.48}
{"gene symbol":"MYL2","reagent":2,"total luciferase, z-score":0.0277}
{"gene symbol":"MYL2","reagent":3,"total luciferase, z-score":0.0985}
{"gene symbol":"LOC100289495","reagent":1,"total luciferase, z-score":-0.0884}
{"gene symbol":"LOC100289495","reagent":2,"total luciferase, z-score":2.94}
{"gene symbol":"LOC100289495","reagent":3,"total luciferase, z-score":-0.219}

Already shown: entries from further up.
{"gene symbol":"FBXL8","reagent":2,"total luciferase, z-score":0.348}
{"gene symbol":"FBXL8","reagent":3,"total luciferase, z-score":-0.41}
{"gene symbol":"TIGD6","reagent":1,"total luciferase, z-score":-0.948}
{"gene symbol":"TIGD6","reagent":2,"total luciferase, z-score":-0.00497}
{"gene symbol":"TIGD6","reagent":3,"total luciferase, z-score":1.13}
